# Experimental data as given in patent US9149471B2, “Therapeutic agent for osteoporosis” (NATIONAL UNIV. CORP. TOKYO UNIV. OF AG. AND TECH, priority 2013, dated 2015).
# For at least one compound, name, drawing or mass did not settle the structure.
# Tested on: mouse model intratibially transplanted with an A549-luc-BM1 human lung cancer cell line
# Experiment: Abnormal bone formation and bone resorption in mouse model intratibially transplanted with A549-luc-BM1 cells (μCT)
# Assay type: in vivo
# Settings: A549-luc-BM1 in mouse tibia, zoledronic acid 0.2 mg/kg/day s.c. twice a week, μCT on Day 36
# Excerpt: Inhibitory Effect on the Abnormal Bone Formation and Bone Resorption in the Mouse Model Intratibially Transplanted an A549-Luc-BM1 Human Lung Cancer Cell Line The A549 human lung cancer cell line in which the luciferase gene was transfected was transplanted in the left ventricle of nude mice, whereby the A549-luc-BM1 lung cancer cell line, which selectively metastasizes to and proliferates in the bone, was established. The cells thus obtained were transplanted in the mouse tibia at 2×10^6 cells/15 μL. On Day 7 after transplantation, the luciferase activity in the graft site was measured by an in-vivo imaging system. Subsequently, the mice were grouped so that the average luciferase activity of each group was equal, and the compound IA was administered orally at 200 mg/kg/day every day for 28 days. The treatment control group received subcutaneous administration of zoledronic acid, which is the third-generation bisphosphonate preparation, at 0.2 mg/kg/day twice a week. For the evaluation of bone lesions, the graft site was imaged by μCT on Day 36 after transplantation.
smiles,measurement,setting,value
"O=P(O)(O)C(O)(Cn1ccnc1)P(=O)(O)O [zoledronic acid, reference compound]","bone destruction and deformation at the graft site (μCT, FIG. 2)",compound IA 200 mg/kg/day orally for 28 days,bone destruction was inhibited
same,"abnormal bone formation at the graft site (μCT, FIG. 2)",,"abnormal bone formation was observed, resulting in malformed bone"
